Laboratory results published in publication PMC5362245, “Depletion of Arabidopsis SC35 and SC35-like serine/arginine-rich proteins affects the transcription and splicing of a subset of genes”.
No constants are given. Whether binding was seen depends on the method and setting. Binding seen in cells or lysates may run through a third protein. A result given as binding can be weak or reduced; the word gives no strength. Where a sequence is shown, tags or fusion partners need not be part of it.

Biological target: T1, NRPB4-NLUC (UniProt O48890)
T1 sequence: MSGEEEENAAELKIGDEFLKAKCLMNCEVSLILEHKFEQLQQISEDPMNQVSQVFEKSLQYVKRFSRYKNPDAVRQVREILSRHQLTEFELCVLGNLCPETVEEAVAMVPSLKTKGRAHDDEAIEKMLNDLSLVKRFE
Assay: split reporter; firefly luciferase complementation imaging; NLUC and CLUC fusions transiently co-expressed in tobacco leaves, imaged about 48 h after infiltration with luciferin

binding, binds:
SC35 fused to a firefly luciferase fragment (CLUC-SR) (Arabidopsis thaliana)
SCL28 fused to a firefly luciferase fragment (CLUC-SR) (Arabidopsis thaliana)
SCL30 fused to a firefly luciferase fragment (CLUC-SR) (Arabidopsis thaliana)
SCL30a fused to a firefly luciferase fragment (CLUC-SR) (Arabidopsis thaliana)
SCL33 fused to a firefly luciferase fragment (CLUC-SR) (Arabidopsis thaliana)
